Drawing on patent US20050130903A1 (priority 2000, published 2005), this text covers conjugation yield for one substance.

The series can be described thus: general procedure: peptide synthesis; PS-DCC (HOBt in some examples), NMM; DIC/DMAP (General Procedure C). The settings on record: conjugation step.

For the substance Ac-ProLeuGly-MetTrpAla-Y, the conjugation yield was 70% yield.
